PubChem BioAssay AID686937, Drosophila RNAi Screening Center, 2013

Assay: 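Knock-downs that reduce output of a secreted reporter enzyme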 (primary screen)
Cell system: Drosophila S2 cells expressing secreted horseradish peroxidase
Reagents: long dsRNA against Drosophila genes
Timing: about 5.5 days (5 days dsRNA, then 12 h reporter induction)
Challenge: reporter expression induced after 5 days of dsRNA, read 12 h later; inducer not stated
Measured: 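Chemiluminescent measurement of peroxidase in the medium 12 h after reporter induction, following 5 days of dsRNA, given as a z-score per plate; higher means more secretion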
Direction: z-score: higher = more reporter secreted into medium
The deposit covers about 23,000 reagents; shown is an unselected part of those that have a named target and a result. 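Reduced-secretion tags in replicate 1 do not always agree with the z-scores; no criterion for assigning the tags was given.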 Names joined by + are all predicted targets of the reagent. Reagent sequences are not shown. Not stated in the record: the amount of reagent.

target gene | amplicon | z-score, replicate 1 | z-score, replicate 2 | z-score, replicate 3 | z-score, replicate 4 | phenotype, replicate 1
ph-d | DRSC18819 | -0.22 | 0.11 | – | – | –
wdn | DRSC17095 | -0.13 | 0.07 | – | – | –
ClC-a | DRSC14947 | 0.08 | 0.02 | – | – | –
ClC-a | DRSC14948 | 0.23 | 0.14 | – | – | –
ClC-a | DRSC16142 | 0.29 | 0.32 | – | – | –
CG10232 | DRSC14218 | 0.32 | 0.42 | – | – | –
Or74a | DRSC11245 | 0.06 | 0 | – | – | –
Nmd3 | DRSC18687 | 0.38 | 0.3 | – | – | –
Nmd3 | DRSC22834 | 0.56 | 0.05 | – | – | –
CecA1 | DRSC16603 | 0.41 | 0.26 | – | – | –
spel1 | DRSC03617 | 0 | 0.36 | – | – | –
CG13894 | DRSC08364 | -1.81 | -0.7 | – | – | reduced secretion
Acsx1R | DRSC14339 | 0.34 | 0.51 | – | – | –
Ugt302C1 | DRSC15353 | 0.15 | 0.22 | – | – | –
CG13694 | DRSC00363 | 0.16 | -0.25 | – | – | –
Lsm11 | DRSC06238 | 0.07 | 0.12 | – | – | –
Atac3 | DRSC08579 | 0.29 | 0.32 | – | – | –
CG11131 | DRSC11636 | 0.61 | -0.37 | – | – | –
CG11131 | DRSC21736 | -0.25 | -0.48 | – | – | –
CG30083 | DRSC05572 | -0.13 | 0.32 | – | – | –
mei-38 | DRSC18564 | 0.11 | 0.34 | – | – | –
CG7720 | DRSC16306 | 0.43 | 0.37 | – | – | –
CG7720 | DRSC16307 | -1.17 | -0.71 | – | – | –
Dcps | DRSC12299 | 0.43 | 0.42 | – | – | –
CG15124 | DRSC06546 | 0.49 | 0.28 | – | – | –
CG30053 | DRSC07260 | 0.36 | 0.18 | – | – | –
robls54B | DRSC05660 | 0.14 | 0.4 | – | – | –
beat-Vb | DRSC12940 | 0.38 | 0.21 | – | – | –
beat-Vb | DRSC14844 | -2.22 | -0.13 | – | – | –
beat-Vb | DRSC14845 | -0.02 | -1.18 | – | – | –
CG14443 | DRSC17936 | 0.31 | 0.57 | – | – | –
CG15145 | DRSC02446 | -0.38 | -0.35 | – | – | –
CG10802 | DRSC17762 | 0.2 | 0.28 | – | – | –
RpL22 | DRSC18707 | -0.91 | -0.49 | -0.56 | -0.82 | reduced secretion
RpL22 | DRSC22819 | -2.29 | -2.18 | – | – | reduced secretion
MFS14 | DRSC06524 | 0.26 | 0.27 | 1.01 | -0.32 | –
Rga + asRNA:ASTR | DRSC12364 | -0.01 | 0.14 | – | – | –
CG9095 | DRSC20150 | 0.25 | 0.38 | – | – | –
Slh | DRSC00407 | 0.12 | 0.16 | – | – | –
Slh | DRSC00789 | -3.78 | -5.36 | – | – | reduced secretion
Adgf-A | DRSC10566 | 0.26 | 0.35 | – | – | –
CG10126 | DRSC14191 | 0.25 | 0.34 | – | – | –
CG9147 | DRSC03147 | 0.21 | 0.02 | – | – | –
CG4554 | DRSC04473 | -0.15 | -0.02 | -0.19 | -0.2 | –
Tsp42El | DRSC06186 | 0.31 | 0.39 | – | – | –
Rpn13R | DRSC18404 | 0.37 | 0.5 | – | – | –
ND-20L | DRSC15414 | 0.17 | 0.42 | – | – | –
CG4914 | DRSC10458 | 0.24 | 0.2 | – | – | –
CG14370 | DRSC14832 | 0.35 | -0.07 | – | – | –
Cyp9c1 | DRSC04607 | 0.1 | 0.01 | – | – | –
CG14107 | DRSC10110 | -0.5 | -0.27 | – | – | –
CG30431 | DRSC04902 | 0.34 | 0.15 | – | – | –
CG30431 | DRSC04904 | 0.21 | 0.36 | – | – | –
lft | DRSC02236 | 0.16 | -0.11 | – | – | –
Lcp1Psi | DRSC05105 | -0.57 | – | – | – | –
vig2 | DRSC14402 | 0.22 | 0.15 | – | – | –
CG3062 | DRSC18572 | 0.09 | -0.37 | – | – | –
witty | DRSC02378 | 0.12 | 0.3 | – | – | –
witty | DRSC21650 | -0.26 | 0.01 | – | – | –
CG32107 | DRSC09221 | 0.41 | 0.08 | – | – | –
gry | DRSC08028 | -0.49 | -0.23 | – | – | –
gry | DRSC08518 | -0.47 | -0.28 | – | – | –
tefu | DRSC16060 | 0.09 | 0.47 | – | – | –
Prip | DRSC07044 | 0.07 | 0.22 | – | – | –
PNUTS | DRSC00638 | -0.61 | -0.3 | – | – | –
PNUTS | DRSC22136 | -0.83 | -0.08 | – | – | –
CG46301 | DRSC01916 | 0.46 | 0.04 | 0.34 | 0.39 | –
TpnC25D | DRSC02965 | 0.12 | 0.14 | – | – | –
ine | DRSC00822 | 0.14 | 0.38 | – | – | –
caly | DRSC07182 | 0.57 | 0.48 | – | – | –
gol | DRSC04689 | 0.16 | 0.1 | – | – | –
CG31549 | DRSC21688 | 1.94 | 0.03 | – | – | –
Diedel2 | DRSC13952 | 0.22 | -0.23 | – | – | –
l(2)dtl | DRSC04697 | -0.77 | -1.3 | – | – | –
Dcr-1 | DRSC15646 | 0.05 | 0.16 | – | – | –
inaF-C | DRSC18902 | 0.29 | 0.82 | – | – | –
Nf1 | DRSC16758 | 0.52 | 0.45 | – | – | –
ND-MNLL | DRSC18159 | 0.38 | 0.33 | – | – | –
CG1309 | DRSC08302 | 0.33 | 0.44 | – | – | –
CG8750 | DRSC11037 | 0.08 | 0.33 | – | – | –
SdhAL | DRSC10539 | 0.46 | 0.49 | – | – | –
CG33468 | DRSC22940 | -0.91 | -0.12 | – | – | –

Limited to “z-score, replicate 1” (11 entries from above):
CG31549 [DRSC21688] = 1.94
Diedel2 [DRSC13952] = 0.22
l(2)dtl [DRSC04697] = -0.77
Dcr-1 [DRSC15646] = 0.05
inaF-C [DRSC18902] = 0.29
Nf1 [DRSC16758] = 0.52
ND-MNLL [DRSC18159] = 0.38
CG1309 [DRSC08302] = 0.33
CG8750 [DRSC11037] = 0.08
SdhAL [DRSC10539] = 0.46
CG33468 [DRSC22940] = -0.91
